Data published in the supplement of paper PMC4807443.
Structures can show the parent of a compound that is named as a salt. The list shows a part of the results. The numbers are fractions of the control, whatever unit the source prints. Most values lie at the level of the controls, where differences are scatter.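 MIN6 is a mouse insulinoma beta-cell line that stably carries a lentiviral reporter in which the Pdx1 and Ins1 promoters each drive a nucleus-targeted fluorescent protein; cells were counted by automated imaging with a Hoechst nuclear stain. In the screen, a drug was a possible hit when its Ins1 promoter readout lay beyond two median absolute deviations from the DMSO controls while Pdx1 activity stayed near normal.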

The compounds below were run on MIN6 (assay: % Pdx1+ Ins1-low (RFP-only, immature) cells relative to DMSO control (fold of DMSO control); higher = more immature Pdx1+/Ins1-low cells). Details: 8.5 µM; 48 h; glucose 5 mM.

| Structure (SMILES) | % Pdx1+ Ins1-low |
| --- | --- |
| CC[C@H](c1ccc(O)cc1)[C@@H](CC)c1ccc(O)cc1 [Hexestrol] | 1.05 |
| Cc1c(Nc2ncccc2C(=O)O)cccc1C(F)(F)F [Flunixin meglumine] | 0.625 |
| CC1O[C@H](O[C@]2(O[C@H]3CC[C@@]4(C)C(=CC[C@H]5[C@@H]6C[C@H]7[C@H]([C@H](C)[C@H]8CC[C@H](C)CN87)[C@@]6(C)CC[C@@H]54)C3)C[C@@H](O[C@@H]3OC(CO)[C@@H](O)[C@@H](O)C3O)[C@@H](O)C(CO)O2)C(O)[C@@H](O)[C@H]1O (stereo partly drawn) [Solanine alpha] | 1.3 |
| CC(C)(C)CC(C)(C)c1ccc(OCCOCC[N+](C)(C)Cc2ccccc2)cc1 [Benzethonium chloride] | 0.634 |
| CN1[C@@H]2CC[C@H]1C[C@@H](OC(=O)C(O)c1ccccc1)C2 (mixture of isomers) [Homatropine hydrobromide (R,S)] | 1.08 |
| C=C1C(=O)O[C@H]2[C@H]1CC/C(C)=C/CC[C@@]1(C)O[C@@H]21 [Parthenolide] | 0.877 |
| CCCCOc1ccc(C(=O)CCN2CCCCC2)cc1 [Dyclonine hydrochloride] | 0.917 |
| C=C1CC[C@H](O)C/C1=C/C=C1\CCC[C@]2(C)[C@@H]([C@H](C)/C=C/[C@H](C)C(C)C)CC[C@@H]12 [Calciferol] | 1.16 |
| Nc1nc(N)c2nc(-c3ccccc3)c(N)nc2n1 [Triamterene] | 0.946 |
| CC(C)(C)NC(=O)[C@H]1CC[C@H]2[C@@H]3CC[C@H]4NC(=O)C=C[C@]4(C)[C@H]3CC[C@]12C [Finasteride] | 0.655 |
| C[C@H]1[C@H]2CC[C@H]3[C@@H]4CC=C5C[C@@H](N(C)C)CC[C@]5(C)[C@H]4CC[C@]23CN1C [Conessine] | 0.99 |
| Nc1ncnc2c1ncn2[C@@H]1O[C@@H]2COP(=O)(O)O[C@H]2[C@H]1O [(-)-Adenosine 3',5'-cyclic monophosphate] | 0.823 |
| COC(=O)[C@H]1[C@H]2C[C@H]3c4[nH]c5ccccc5c4CCN3C[C@H]2CC[C@@H]1O [Rauwolscine hydrochloride] | 0.925 |
| CC(CN(C)C)CN1c2ccccc2CCc2ccccc21 (stereo unspecified) [Trimipramine maleate salt] | 0.849 |
| OC(CCN1CCCC1)(c1ccccc1)C1CCCCC1 (stereo unspecified) [Procyclidine hydrochloride] | 1.07 |
| CC(C)NCC(O)COc1cccc2[nH]ccc12 (stereo unspecified) [Pindolol] | 1.24 |
| CCN(CC)C(=O)N1CCN(C)CC1 [Diethylcarbamazine citrate] | 0.766 |
| CCN(CCCc1ccccc1)CCCc1ccccc1 [Alverine citrate salt] | 1.2 |

Part of the list above, with tabs:
Structure (SMILES)	% Pdx1+ Ins1-low
C=C1CC[C@H](O)C/C1=C/C=C1\CCC[C@]2(C)[C@@H]([C@H](C)/C=C/[C@H](C)C(C)C)CC[C@@H]12 [Calciferol]	1.16
Nc1nc(N)c2nc(-c3ccccc3)c(N)nc2n1 [Triamterene]	0.946
CC(C)(C)NC(=O)[C@H]1CC[C@H]2[C@@H]3CC[C@H]4NC(=O)C=C[C@]4(C)[C@H]3CC[C@]12C [Finasteride]	0.655
C[C@H]1[C@H]2CC[C@H]3[C@@H]4CC=C5C[C@@H](N(C)C)CC[C@]5(C)[C@H]4CC[C@]23CN1C [Conessine]	0.99
Nc1ncnc2c1ncn2[C@@H]1O[C@@H]2COP(=O)(O)O[C@H]2[C@H]1O [(-)-Adenosine 3',5'-cyclic monophosphate]	0.823
COC(=O)[C@H]1[C@H]2C[C@H]3c4[nH]c5ccccc5c4CCN3C[C@H]2CC[C@@H]1O [Rauwolscine hydrochloride]	0.925
CC(CN(C)C)CN1c2ccccc2CCc2ccccc21 (stereo unspecified) [Trimipramine maleate salt]	0.849

Carrying on.

| Structure (SMILES) | % Pdx1+ Ins1-low |
| --- | --- |
| Cc1c(C)c2c(c(C)c1O)CC[C@@](C)(CCC[C@H](C)CCC[C@H](C)CCCC(C)C)O2 (racemic) [Tocopherol (R,S)] | 1.78 |
| Clc1ccccc1C(c1ccccc1)(c1ccccc1)n1ccnc1 [Clotrimazole] | 0.555 |
| Clc1ccc(COC(Cn2ccnc2)c2ccc(Cl)cc2Cl)cc1 (stereo unspecified) [Econazole nitrate] | 0.709 |
| C[C@H](CCC(=O)NCC(=O)O)[C@H]1CC[C@H]2[C@@H]3[C@H](O)C[C@@H]4C[C@H](O)CC[C@]4(C)[C@H]3C[C@H](O)[C@]12C [Glycocholic acid] | 0.909 |
| CCCC(C(=O)OCCN(CC)CC)(c1ccccc1)c1ccccc1 [Proadifen hydrochloride] | 0.775 |
| C=CC[N@@+]12CC[C@@]34c5ccccc5N5/C=C6/[C@H]7C[C@H]8[C@@]9(CC[N@@+]8(CC=C)C/C7=C/CO)c7ccccc7N(/C=C(/[C@@H](C[C@@H]31)/C(=C\CO)C2)[C@H]54)[C@@H]69 [Alcuronium chloride] | 1.09 |
| NC[C@H]1CC[C@H](C(=O)O)CC1 [Tranexamic acid] | 0.694 |
| C=CCc1ccccc1OCC(O)CNC(C)C (stereo unspecified) [Alprenolol hydrochloride] | 1.11 |
| CCCCOc1ccc(CC(=O)NO)cc1 [Bufexamac] | 0.632 |
| CC(=O)OC(C)C[N+](C)(C)C (stereo unspecified) [Methacholine chloride] | 0.358 |
| O=C(O)c1cc(=O)c2c(OCC(O)COc3cccc4oc(C(=O)O)cc(=O)c34)cccc2o1 [Cromolyn disodium salt] | 0.649 |
| CN(C)CCC(c1ccccc1)c1ccccn1 (stereo unspecified) [Pheniramine maleate] | 1.35 |
| CCSc1ccc2c(c1)N(CCCN1CCN(C)CC1)c1ccccc1S2 [Thiethylperazine malate] | 1.02 |
| Nc1ccc(S(N)(=O)=O)cc1 [Sulfanilamide] | 1.2 |
| CC(CCc1ccc(O)cc1)NCCc1ccc(O)c(O)c1 (stereo unspecified) [Dobutamine hydrochloride] | 0.809 |
| CC[C@]12CCCN3CCc4c(n(c5ccccc45)[C@@](O)(C(=O)OC)C1)[C@@H]32 [Vincamine] | 0.52 |
| Cn1c(=O)c2c(ncn2CC(O)CO)n(C)c1=O (stereo unspecified) [Diprophylline] | 0.726 |
| C=C(NC(=O)C(=C)NC(=O)c1csc(C2=N[C@@H]3c4csc(n4)[C@H]4NC(=O)c5csc(n5)[C@H]([C@](C)(O)[C@@H](C)O)NC(=O)[C@H]5CSC(=N5)/C(=C/C)NC(=O)[C@H]([C@@H](C)O)NC(=O)c5csc(n5)[C@]3(CC2)NC(=O)[C@H](C)NC(=O)C(=C)NC(=O)[C@H](C)NC(=O)[C@H]([C@@H](C)CC)N[C@@H]2C=Cc3c([C@H](C)O)cc(nc3[C@H]2O)C(=O)O[C@@H]4C)n1)C(N)=O [Thiostrepton] | 0.821 |
